A: 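Enzyme assay of histidyl-tRNA synthetase; the read-out is not stated. Target: Histidine-tRNA ligase, Trypanosoma cruzi CL Brener (UniProt Q4DA54). Concentration: 30 µM. Higher reads as stronger inhibition (inferred: compounds with an IC50 in retests scored well above the rest). Size under these conditions: about 69,000 compounds, about 31 of them at 50% or above in at least one test.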
B: 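Tryptophan-tRNA ligase, Mycobacterium tuberculosis (UniProt P9WFT3). Enzyme assay of tryptophanyl-tRNA synthetase; the read-out is not stated. Compounds at 10 µM. Higher most likely means stronger inhibition; the record gives no direction and few retests gave an IC50. Of about 65,000 compounds tested this way, about 64 (0.098%) reached 50% or more in at least one test.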
C: 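Polyketide synthase Pks13, Mycobacterium tuberculosis (UniProt I6X8D2). Enzyme assay of the thioesterase domain of polyketide synthase 13; the read-out is not stated. Concentration: 30 µM. The record gives no direction; the compounds picked for IC50 retests had high values, so higher reads as stronger inhibition. About 67,000 compounds were tested under these conditions; 0.46% (about 300) showed 50% or more at least once.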
D: 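Enzyme assay of the cytosolic lysyl-tRNA synthetase in 384-well plates, read by luminescence. Target: Lysine-tRNA ligase, Plasmodium falciparum 3D7 (UniProt Q8IDJ8). Tested at 30 µM. Direction is inferred from only a few compounds that gave an IC50; most scored high, so higher reads as stronger inhibition. Size under these conditions: about 69,000 compounds, about 49 of them at 50% or above in at least one test.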
E: 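Assay of Toxoplasma gondii numbers, read through their beta-galactosidase reporter with a colour substrate. Compounds at 10 µM. Higher reads as fewer parasites (inferred from which compounds were picked for retests). About 67,000 compounds were tested under these conditions; 0.38% (about 260) showed 50% or more at least once.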

Protein sequences, listed by entry. Tags and fused reporters are not part of them. Residues count along the entry.
UniProt Q4DA54, 1-478: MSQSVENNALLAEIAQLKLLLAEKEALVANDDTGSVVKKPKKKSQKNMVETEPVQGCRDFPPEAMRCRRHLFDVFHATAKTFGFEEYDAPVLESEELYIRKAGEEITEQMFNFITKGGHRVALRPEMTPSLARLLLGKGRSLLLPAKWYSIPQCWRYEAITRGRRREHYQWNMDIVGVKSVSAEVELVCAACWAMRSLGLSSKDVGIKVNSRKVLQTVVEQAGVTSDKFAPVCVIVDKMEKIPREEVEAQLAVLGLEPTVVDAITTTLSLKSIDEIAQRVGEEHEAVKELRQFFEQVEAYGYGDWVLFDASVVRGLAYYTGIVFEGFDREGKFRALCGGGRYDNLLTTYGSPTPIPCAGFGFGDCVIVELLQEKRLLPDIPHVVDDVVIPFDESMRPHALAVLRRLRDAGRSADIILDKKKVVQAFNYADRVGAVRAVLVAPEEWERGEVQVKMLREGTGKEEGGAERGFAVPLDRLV
UniProt P9WFT3, whole entry: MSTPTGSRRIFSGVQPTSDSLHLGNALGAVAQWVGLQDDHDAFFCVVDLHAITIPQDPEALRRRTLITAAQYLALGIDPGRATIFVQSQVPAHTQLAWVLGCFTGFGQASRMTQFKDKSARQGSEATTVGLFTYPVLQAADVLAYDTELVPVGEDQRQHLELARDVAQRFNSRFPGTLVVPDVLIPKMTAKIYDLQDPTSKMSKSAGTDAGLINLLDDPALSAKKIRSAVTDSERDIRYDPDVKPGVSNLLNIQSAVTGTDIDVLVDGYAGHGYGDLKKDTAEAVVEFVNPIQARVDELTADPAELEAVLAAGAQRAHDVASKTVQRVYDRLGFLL
UniProt I6X8D2, whole entry: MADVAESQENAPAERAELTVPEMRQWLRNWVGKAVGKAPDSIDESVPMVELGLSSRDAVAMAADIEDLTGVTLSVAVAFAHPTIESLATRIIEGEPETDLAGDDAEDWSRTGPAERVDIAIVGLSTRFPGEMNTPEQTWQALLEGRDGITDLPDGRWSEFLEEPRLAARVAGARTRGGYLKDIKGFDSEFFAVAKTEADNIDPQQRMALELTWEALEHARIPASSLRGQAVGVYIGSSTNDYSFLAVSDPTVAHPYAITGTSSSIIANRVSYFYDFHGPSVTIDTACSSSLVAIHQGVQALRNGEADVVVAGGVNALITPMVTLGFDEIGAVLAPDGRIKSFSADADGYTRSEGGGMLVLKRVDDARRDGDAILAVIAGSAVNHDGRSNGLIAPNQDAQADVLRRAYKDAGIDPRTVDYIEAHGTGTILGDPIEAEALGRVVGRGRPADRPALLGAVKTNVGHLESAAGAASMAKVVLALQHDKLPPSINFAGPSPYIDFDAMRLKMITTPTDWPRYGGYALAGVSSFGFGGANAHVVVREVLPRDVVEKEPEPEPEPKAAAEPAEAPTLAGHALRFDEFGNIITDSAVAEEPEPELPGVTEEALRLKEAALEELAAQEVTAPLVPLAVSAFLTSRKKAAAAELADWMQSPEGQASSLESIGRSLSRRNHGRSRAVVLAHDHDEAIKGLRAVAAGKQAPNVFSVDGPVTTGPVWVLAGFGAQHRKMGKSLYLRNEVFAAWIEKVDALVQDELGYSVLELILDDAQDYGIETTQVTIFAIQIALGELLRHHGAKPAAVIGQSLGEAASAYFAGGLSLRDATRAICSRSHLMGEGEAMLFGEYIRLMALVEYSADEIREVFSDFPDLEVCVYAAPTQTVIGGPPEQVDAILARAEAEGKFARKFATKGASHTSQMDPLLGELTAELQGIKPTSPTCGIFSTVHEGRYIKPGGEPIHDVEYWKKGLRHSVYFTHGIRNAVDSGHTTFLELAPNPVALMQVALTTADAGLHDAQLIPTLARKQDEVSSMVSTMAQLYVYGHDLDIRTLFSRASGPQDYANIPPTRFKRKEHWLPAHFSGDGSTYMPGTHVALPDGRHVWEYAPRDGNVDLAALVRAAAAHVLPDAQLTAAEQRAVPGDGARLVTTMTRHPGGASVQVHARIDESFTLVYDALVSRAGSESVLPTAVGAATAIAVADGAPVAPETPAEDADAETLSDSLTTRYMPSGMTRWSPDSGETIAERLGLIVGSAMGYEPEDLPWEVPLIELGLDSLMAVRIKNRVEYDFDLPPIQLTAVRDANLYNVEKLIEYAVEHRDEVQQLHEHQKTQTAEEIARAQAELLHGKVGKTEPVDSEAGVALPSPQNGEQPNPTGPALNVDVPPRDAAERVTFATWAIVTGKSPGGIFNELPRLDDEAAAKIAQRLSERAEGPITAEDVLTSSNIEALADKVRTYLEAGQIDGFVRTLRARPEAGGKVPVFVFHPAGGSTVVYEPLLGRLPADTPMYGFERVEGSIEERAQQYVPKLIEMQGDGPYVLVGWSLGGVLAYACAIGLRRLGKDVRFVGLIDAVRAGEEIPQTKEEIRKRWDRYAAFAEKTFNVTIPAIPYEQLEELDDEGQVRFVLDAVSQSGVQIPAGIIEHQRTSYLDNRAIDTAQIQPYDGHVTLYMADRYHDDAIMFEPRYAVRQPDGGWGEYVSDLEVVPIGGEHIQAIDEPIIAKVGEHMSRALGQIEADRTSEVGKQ
UniProt Q8IDJ8, 1-583: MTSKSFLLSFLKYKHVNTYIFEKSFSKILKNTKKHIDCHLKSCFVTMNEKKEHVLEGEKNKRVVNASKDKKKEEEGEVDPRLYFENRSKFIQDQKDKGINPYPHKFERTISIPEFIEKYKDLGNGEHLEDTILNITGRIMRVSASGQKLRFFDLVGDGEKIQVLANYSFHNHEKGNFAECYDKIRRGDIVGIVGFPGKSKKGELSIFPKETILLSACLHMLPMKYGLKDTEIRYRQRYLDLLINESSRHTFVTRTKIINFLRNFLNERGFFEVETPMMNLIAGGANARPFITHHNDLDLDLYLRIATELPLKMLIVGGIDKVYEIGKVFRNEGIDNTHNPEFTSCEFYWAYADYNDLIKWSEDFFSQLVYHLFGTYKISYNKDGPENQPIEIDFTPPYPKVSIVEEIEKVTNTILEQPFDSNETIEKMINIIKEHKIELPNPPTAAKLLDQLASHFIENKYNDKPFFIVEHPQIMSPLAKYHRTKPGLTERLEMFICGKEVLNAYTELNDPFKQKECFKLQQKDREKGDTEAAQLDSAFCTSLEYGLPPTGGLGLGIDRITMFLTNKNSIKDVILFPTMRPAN

Values are the deposited “Percent Effect”, in %. The record does not define 0% and 100%; most values in the screen are far below 50% and negative numbers occur (in some assays of this library far below -100). This is an unselected part of the compounds tested. A dash means the value is not listed here; it may have been measured.

Compound,A,B,C,D,E
CN1CCN(Cc2ccccc2CNC(=O)c2ccc(Cl)cc2F)CC1,9.852%,0.7936%,10.52%,3.201%,6.321%
O=C(C1CC1)N1CC[C@H](O)[C@@H]1Cc1ccccc1,6.767%,1.45%,-4.008%,5.976%,2.006%
CNC(=O)N1CCC2(CC1)c1ncc(C)n1CCN2C.O=C(O)C(F)(F)F.O=C(O)C(F)(F)F,-,-,-,-,-18.29%
[H][C@@]12C[C@H](C)O[C@]1([H])CCN(C(=O)c1ccncn1)C2,-,-,-,-,2.475%
CCC(CN1CCCCC1)NC(=O)C1(c2ccc(F)cc2)CC1.O=C(O)CC(O)(CC(=O)O)C(=O)O (stereo not given),-,-,-,-,21.58%
Cc1ccc(CN2CCC3(CC2)CC(NC(=O)c2ccccn2)CO3)o1 (stereo not given),7.527%,-3.586%,-13.4%,8.444%,-7.223%
COCC(=O)N1CCN(c2ncnc3cccc(F)c23)CC1,-1.961%,14.27%,2.45%,2.869%,-5.192%
COCc1nn(CC2CC2)c2c1CN(Cc1ccco1)CC2,5.825%,-5.255%,-38.89%,-1.629%,-
Cc1nc[nH]c1C(=O)NCc1cccnc1N(C)C1CCCCC1,-3.017%,1.374%,-43.85%,3.454%,15.18%
CCc1cnc(N2CCCOC(CN3CCCC3)C2)nc1 (stereo not given),14.47%,1.858%,5.539%,4.373%,0.2283%
Cc1nn(C)c(C)c1C1CCCN1Cc1cccc(C(=O)N(C)C)c1 (stereo not given),-12.03%,-3.068%,-34.55%,5.511%,-
COCC1(C(=O)N[C@H]2CN(c3nnc(C)s3)C[C@@H]2C2CC2)CCC1,3.704%,-1.877%,-20.33%,-2.5%,-7.236%
COc1ccccc1NCc1cscn1,7.955%,0.4244%,-18.61%,-0.317%,-
Cc1cnc(N2CC[C@H]3[C@@H]2CCC(=O)N3c2cccnc2)nc1,6.863%,-0.3255%,13.31%,2.708%,-
Cc1cc(NC(=O)c2ccccc2Br)n(C)n1,-1.657%,-1.135%,-27.69%,0.6751%,7.16%
CCc1ccc(CCC(=O)NCc2nnc[nH]2)cc1,-2.941%,1.068%,-34.81%,3.248%,2.483%
CCC(Nc1nnnn1-c1ccccc1)C(=O)NCc1ccsc1 (stereo not given),0%,-1.887%,-34.48%,0.1145%,-5.211%
Cc1cc(NC(C)Cc2cccs2)n2nccc2n1 (stereo not given),3.077%,5.815%,-24.61%,1.481%,-2.145%
Fc1cnc(N2CCCC3(CCN(Cc4ccoc4)C3)C2)nc1 (stereo not given),14.29%,-0.2292%,-16.79%,7.658%,-
Cc1cc(CNC(=O)NC(C)c2ccncc2)no1 (stereo not given),4.184%,-0.58%,-1.951%,3.086%,12.83%
CN(C)S(=O)(=O)N1CCCC(CCC(=O)Nc2ccc(Cl)cc2)C1 (stereo not given),-5.844%,20.02%,-68.34%,-6.544%,1.644%
Cn1c(N2CCOCC2)nc2cc(C(=O)N[C@@H]3CC[C@@H](N)C3)ccc21,-1.339%,0%,-16.35%,4.92%,11.99%
O=C(C1=COCCO1)N1CC(Oc2nc3c(C(F)(F)F)cccc3s2)C1,-1.554%,5.083%,5.335%,-0.5233%,7.676%
CN(Cc1ccc(Cl)s1)C(=O)CN1CC(n2cccn2)C1,-0.9804%,1.354%,-17.85%,4.494%,-3.223%
COCCOC[C@]1(CNCc2ccc(F)cc2)C[C@@H](O)[C@@H](O)C1,4.95%,3.69%,30.89%,2.654%,-
Cc1cc(CC(=O)NC2CCCN(Cc3ccccc3)C2=O)n[nH]1 (stereo not given),5.473%,6.58%,-3.26%,1.653%,-15.12%
O=C(O)c1ccnc(-c2ccnc(N3CCC4(CCO4)CC3)n2)c1,10.13%,1.941%,2.428%,4.086%,-1.488%
Cc1ccccc1OCCC(=O)OC(C)C(=O)Nc1sccc1C(N)=O (stereo not given),-5.085%,-2.347%,3.869%,-0.8781%,-4.306%
CNC(=O)[C@H]1C[C@@H]2CN(Cc3ccc(C)cc3)C[C@H]1O2,2.793%,-,-2.725%,3.586%,-
C[C@H]1CN(C(=O)c2ccoc2)C[C@@]12CCN(CCN(C)C)C2=O,-1.442%,-0.995%,-39.8%,1.836%,-
CCOC1COC2(CCN(c3cccc(C)n3)CC2)C1.O=C(O)C(F)(F)F (stereo not given),-,-,-,-,3.553%
CC(O)CN1CCN(C(=O)c2cc3ccccc3c(=O)[nH]2)CC1 (stereo not given),5.435%,-3.708%,-13.64%,1.962%,-1.357%
COc1ccccc1NC(=O)CC(C)NCc1scnc1C (stereo not given),4.926%,-5.379%,30.58%,-2.093%,3.287%
O=C(O)C(F)(F)F.O=C(O)C(F)(F)F.[H][C@@]12COC[C@]1(C(=O)NCc1cccnc1)CN(Cc1scnc1C)C2,-,-,-,-,-12.24%
COc1cc(CNCC(O)c2ccc(C)cc2)cc2c1OCO2 (stereo not given),6.433%,-8.087%,-6.203%,3.177%,-
O=C(N[C@H]1CN[C@H]2CCCO[C@H]21)c1ccno1,-0.8264%,3.372%,-17.01%,-2.23%,-
CCOC(=O)N1CCCC2(CCCNC2)C1 (stereo not given),1.942%,8.812%,-21.78%,3.533%,-
CC(C)c1nc(C2CCCN(C(=O)CCCn3cncn3)C2)no1 (stereo not given),0%,-0.7042%,-4.273%,1.71%,7.18%
CC(C)CN1CCC2(C1)CN(S(=O)(=O)c1cn(C)cn1)C2,2.513%,-,7.051%,5.086%,-
[H][C@@]12CN(C(=O)C3CCOC3)C[C@@]1([H])N(CC(C)C)C(=O)CO2 (stereo not given in full),-,-,-,-,15.49%
Cc1cc(NCCN2CCNC2=O)nc2cc3c(cc12)CCC3,7.2%,-0.8051%,29.66%,1.381%,-15.3%
COc1ccc(C(=O)NCCNC(=O)c2scnc2Cl)cc1,-11.3%,-1.013%,-9.058%,0.9323%,10.1%

For reference, 4 entries once more:

Compound,A,B,C,D,E
Cc1ccccc1OCCC(=O)OC(C)C(=O)Nc1sccc1C(N)=O (stereo not given),-5.085%,-2.347%,3.869%,-0.8781%,-4.306%
Cc1cnc(N2CC[C@H]3[C@@H]2CCC(=O)N3c2cccnc2)nc1,6.863%,-0.3255%,13.31%,2.708%,-
Cc1nn(C)c(C)c1C1CCCN1Cc1cccc(C(=O)N(C)C)c1 (stereo not given),-12.03%,-3.068%,-34.55%,5.511%,-
Cc1cc(NCCN2CCNC2=O)nc2cc3c(cc12)CCC3,7.2%,-0.8051%,29.66%,1.381%,-15.3%

From ChEMBL document CHEMBL3988442, “University of Dundee, Small-Polar-MMV Screening Library” (2021).